Values quoted from earlier work in US6511970B1, “Prevention of ovarian cancer by administration of products that induce transforming growth factor-beta and/or apoptosis in the ovarian epithelium” (New Life Pharmaceuticals Inc., priority 1996, dated 2003).
For at least one compound, name, drawing or mass did not settle the structure. Some results were stated once for a whole list of compounds, not compound by compound.

Legend:
androgenic activity = details: cited from earlier work
[1] = cited from earlier work

Compound | nuclear cell androgenic activity relative to levonorgestrel (androgenic activity) | toxicity relative to first- or second-generation retinoids (in words) [1] | potency relative to first- or second-generation retinoids ([1]; several standard screening tests)
C#C[C@]1(O)CC[C@H]2[C@@H]3CCC4=CC(=O)CC[C@@H]4[C@H]3C(=C)C[C@@]21CC [3-ketodesogestrel] | less than 50% |  | 
C/C(=C\c1ccc(C(=O)O)cc1)c1ccc2c(c1)C(C)(C)CCC2(C)C [TTNPB] |  | less toxic | over 1000 times
